From patent US20180291353A1, “MONOFUNCTIONAL ALDEHYDE AND ALCOHOL DEHYDROGENASES FOR PRODUCTION OF FUELS AND COMMODITY CHEMICALS” (The Regents of the University of California, priority 2015, published 2018)
At least one read-out could not be matched to a standard name with certainty.

Tests used:
[1] = Enzyme assay monitoring oxidation of NADH at 340 nm, substrate acetyl-CoA; format: biochemical
[2] = Enzyme assay monitoring oxidation of NADH at 340 nm, substrate butyryl-CoA; format: biochemical

B1: ALDH16: monofunctional aldehyde dehydrogenase specific for C4 substrates (protein, listed as Clostridium beijerinckii)
chain: MNKDTLIPTTKDLKVKTNGENINLKNYKDNSSCFGVFENVENAISSAVHAQKILSLHYTKEQREKIITEIRKAALQNKEVLATMILEETHMGRYEDKILKHELVAKYTPGTEDLTTTAWSGDNGLTVVEMSPYGVIGAITPSTNPTETVICNSIGMIAAGNAVVFNGHPCAKKCVAFAVEMINKAIISCGGPENLVTTIKNPTMESLDAIIKHPSIKLLCGTGGPGMVKTLLNSGKKAIGAGAGNPPVIVDDTADIEKAGRSIIEGCSFDNNLPCIAEKEVFVFENVADDLISNMLKNNAVIINEDQVSKLIDLVLQKNNETQEYFINKKWVGKDAKLFLDEIDVESPSNVKCIICEVNANHPFVMTELMMPILPIVRVKDIDEAIKYAKIAEQNRKHSAYIYSKNIDNLNRFEREIDTTIFVKNAKSFAGVGYEAEGFTTFTIAGSTGEGITSARNFTRQRRCVLAG
kcat/KM [1]: (0.1 ± 0.01) × 10^3 M^−1 s^−1 | kcat/KM [2]: (7.3 ± 0.01) × 10^3 M^−1 s^−1
